Data reported in US20150098946A1 (Genentech, published 2015).
Results are given in words; binding and its absence hold for the method and conditions named. Some binding calls cover weakened binding; strength is not graded here.

By UniProt entry, the sequences of proteins in these tests, tags left out. Where a name states a change or a piece, a line headed by the entry shows the natural chain unless it says otherwise.
UniProt P07949: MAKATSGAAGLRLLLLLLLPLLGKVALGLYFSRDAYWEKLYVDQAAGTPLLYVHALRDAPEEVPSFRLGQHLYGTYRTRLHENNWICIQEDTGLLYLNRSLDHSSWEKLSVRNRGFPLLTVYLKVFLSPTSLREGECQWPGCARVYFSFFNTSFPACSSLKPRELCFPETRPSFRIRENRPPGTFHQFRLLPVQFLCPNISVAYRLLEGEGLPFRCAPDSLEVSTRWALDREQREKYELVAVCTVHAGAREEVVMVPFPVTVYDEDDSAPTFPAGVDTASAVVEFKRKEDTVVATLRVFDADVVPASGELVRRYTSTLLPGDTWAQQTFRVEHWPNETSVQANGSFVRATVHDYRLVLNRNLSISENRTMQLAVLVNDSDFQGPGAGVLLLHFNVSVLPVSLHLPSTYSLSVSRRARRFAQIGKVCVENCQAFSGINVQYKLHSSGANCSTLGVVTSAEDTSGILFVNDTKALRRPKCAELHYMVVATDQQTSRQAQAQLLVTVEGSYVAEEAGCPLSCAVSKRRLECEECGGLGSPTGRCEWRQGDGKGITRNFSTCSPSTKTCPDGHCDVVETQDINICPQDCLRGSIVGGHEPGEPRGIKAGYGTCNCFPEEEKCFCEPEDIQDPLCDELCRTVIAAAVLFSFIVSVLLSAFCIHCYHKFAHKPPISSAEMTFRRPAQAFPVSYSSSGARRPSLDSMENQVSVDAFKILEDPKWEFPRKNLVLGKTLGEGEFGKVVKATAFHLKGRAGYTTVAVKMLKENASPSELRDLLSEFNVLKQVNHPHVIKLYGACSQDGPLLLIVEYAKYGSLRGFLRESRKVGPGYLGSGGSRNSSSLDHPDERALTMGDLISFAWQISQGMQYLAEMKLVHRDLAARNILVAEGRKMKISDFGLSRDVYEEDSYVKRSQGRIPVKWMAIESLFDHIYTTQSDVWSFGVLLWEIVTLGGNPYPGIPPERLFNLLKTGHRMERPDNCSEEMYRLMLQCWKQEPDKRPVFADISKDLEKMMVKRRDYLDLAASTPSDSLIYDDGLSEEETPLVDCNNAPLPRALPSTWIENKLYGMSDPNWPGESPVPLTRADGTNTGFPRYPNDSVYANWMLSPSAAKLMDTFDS

Biological target: TAT194 polypeptide on the cell surface (293 cells transfected to express TAT194, 293-RET; tumor cells) (human) (UniProt P07949)
Experiment: binding to cells expressing TAT194 (FACS and other routine techniques)

| Binder | binding |
| --- | --- |
| anti-TAT194 monoclonal antibody R4203 (antibody, V domains shown, Monoclonal antibody from a mouse hybridoma; kappa VL) VH: EVQLQQSGPELVKPGASMKISCKASGYSFTGFTMNWVKQSHGKNLEWIGLINPYNGVTNYNQKFRGKATLTVDESSSTAYMDLLSLTSEDSAVYYCARHYSFAMDYWGQGTSVTVSS VL: DIVLTQSPASLAVSLGQRATISCRASESVDGYGSSFMHWYQQKPGQPPKLLIYRTSNLESGIPARFSGSGSTTDFTLTINPVEADDVATYYCQQNSEDRTFGGGTKLEIKR | binds |
| anti-TAT194 monoclonal antibody R4204 (antibody, V domains shown, Monoclonal antibody from a mouse hybridoma; kappa VL) VH: QVQLQQSGAELAKPGTSVKMSCKASGYTFTTYWMHWIKQRPGQGLEWIGYINPSTGYSEYNQKFKDKATLTADRSSSTAYMQLSSLTSEDSTVYYCARWRFYGSTYGMDYWGQGTSVTVSS VL: QIVLTQSPALMSAFPGEKVTLTCSASSSVTYMYWYQQKPRSSPKPWIYLTSKLASGVPSRFSGSGSGTSFSLTITSMEAEDAATYYCQQWTGNPLTFGAGTKLELKR | binds |
| anti-TAT194 monoclonal antibody R4205 (antibody, V domains shown, Monoclonal antibody from a mouse hybridoma; kappa VL; also called anti-RET murine monoclonal antibody clone 4205) VH: QVQLKESGPGLVKPSQSLSLTCTVTGYSITSDYVWNWIRQFPGNKLEWMGYIHYSGGTSYNPSLKSRISITRDTSKNQFFLHLNSLTTEDTATYYCARGNYDWAFAYWGQGTLVTVSA VL: DVQITQSPSYLAASPGETITINCRASKSISKYLAWYQDKPGKTNKLLISSGSTLQSGIPSRFSGSGSGADFTLTISSLEPEDFAMYYCQQHNEYPWTFGGGTKLEIKR | binds |
| anti-TAT194 monoclonal antibody R4206 (antibody, V domains shown, Monoclonal antibody from a mouse hybridoma; kappa VL) VH: DVQLQESGPGLVKPSQSLSLTCTVTGFSITSDYAWNWIRQFPGNKLEWMAYITYSGDTGYNPSLKSRISVTRDTSKNQFFLQLSSVTTEDTATYYCARGNYDWVFAYWGQGTLVTVSA VL: DVQITQSPSYLAASPGETITINCRASKSISKYLAWYQEKPGKTNKLLIYSGSTLQSGIPSRFSGSGSGTDFTLTISSLEPEDFAMYYCQQYIEYPWTFGGGTKLEIKR | binds |
| anti-TAT194 monoclonal antibody R4207 (antibody, V domains shown, Monoclonal antibody from a mouse hybridoma; kappa VL) VH: DVQLQESGPGLVKPSQSLSLTCTVTGFSITSDYAWNWIRQFPGNKLEWMAYITYSGDTGYNPSLKSRISVTRDTSKNQFFLQLSSVTTEDTATYYCARGNYDWVFAYWGQGTLVTVSA VL: DVQITQSPSYLAASPGETITINCRASKSISKYLAWYQEKPGKTNKLLIYSGSTLQSGIPSRFSGSGSGTDFTLTISSLEPEDFAMYYCQQYIEYPWTFGGGTKLEIKR | binds |
| anti-TAT194 monoclonal antibody R4208 (antibody, V domains shown, Monoclonal antibody from a mouse hybridoma; kappa VL) VH: QVHLQQSGSELRSPGSSVKLSCKDFDSEVFPIAYMSWVRQKPGHGFEWIGDILPNIGRTIYGEKFEDKATLDADTVSNTAYLELNSLTSEDSAMYYCGRSITRAWFAYWGQGTLVTVSV VL: DIQMTQSPSSLSASLGERVSLTCRASQEISGYLSWFQQKPDGTIKRLIYAASTLDSGVPKRFSGSRSGSDYSLTISSLASEDFADYFCLQYAGNPFTFGSGTKLEIKR | binds |
| anti-TAT194 monoclonal antibody R4209 (antibody, V domains shown, Monoclonal antibody from a mouse hybridoma; kappa VL) VH: EVNLEESGGGLVQPGGSMKLSCVASGFTFSNYWMNWVRQSPEKGLEWVADISLKSNNYGTHYAESVNGRFTISRDDSTSSVYLQMNNLRAEDTGIYYCAVYYYGVKFYYFVLGYWGQGTSVTVSS VL: DIVMTQSHKFMSTSVGDRVSITCKASQDVSTAVAWYQQKPGQSPKLLIYWGSTRHTGVPDRFTGVGSGTDYSLTISSVQAEDLALYYCQQHYNIPWTFGGGTKLEIKR | binds |
